For this data set the following is noted: all HD patients.

Structures are written as SMILES.

With `Nc1nc2c([nH]c(=O)n2[C@H]2C[C@H](O)[C@@H](CO)O2)c(=O)[nH]1` [Formulation 8-OHdG, 8-OHdG], the “P1 pre-dialysis plasma concentration ± SEM” value stood at 0.34 ± 0.02 ng/mL and the “P2 post-dialysis plasma concentration ± SEM” value stood at 0.21 ± 0.02 ng/mL.
